## Percent effect of library compounds

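Assay of Toxoplasma gondii numbers, read through their beta-galactosidase reporter with a colour substrate. Concentration: 50 µM. The record gives no direction; the compounds picked for IC50 retests had high values, so higher reads as fewer parasites. Of about 18,000 compounds tested this way, about 170 (0.94%) reached 50% or more in at least one test.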

Each number is a percent effect as filed.
The controls that fix the scale are not given in the record; negative values are as filed.
Compounds were drawn at random from those tested, without regard to their results.

| compound | percent effect |
|---|---|
| `O=C(CN1CCN(C2CC2)CC1)NCc1ccco1` | 6.522 |
| `CS(=O)(=O)N(CC(N)=O)c1cc(Cl)cc(Cl)c1` | -2.884 |
| `CCN1CCCC1CNC(=O)c1ccc(C)o1` (stereo not shown) | 0 |
| `CNC(=O)c1ccc(Cl)c(S(=O)(=O)N2CCCCC2)c1` | 1.063 |
| `CCS(=O)(=O)N1CCC(C(C)NC)CC1` (stereo not shown) | 6.008 |
| `CCSCCCNC(=O)NCC1CCS(=O)(=O)CC1` | -19.78 |
| `Cc1ncc(CN2C[C@@H]3CCC[C@H](C2)C(=O)N3)n1C` | -16.96 |
| `CC(=O)N(C)CC(=O)Nc1ccccc1N1CCCC1` | -1.395 |
| `CC(O)C1CCN(CC(=O)NCc2cccs2)CC1` (stereo not shown) | 2.01 |
| `CN(C)c1cc(C(=O)Nc2nccs2)ccn1` | -10.16 |
| `CN(C)C(=O)NCC(=O)NCCCc1ccncc1` | -0.654 |
| `Cc1nc(CCCN)sc1C` | 12.1 |
| `CC1CCOCCN1C(=O)c1ccoc1Br` (stereo not shown) | -1.42 |
| `Cc1n[nH]cc1CNC1CCN(C(=O)C(C)C)CC1` | -3.019 |
| `O=C1c2ccc(Br)cc2C(=O)N1C1CC1` | -2.801 |
| `CCC1Oc2c(Cl)cccc2NC1=O` (stereo not shown) | -6.906 |
| `CN(C)c1cc(CNc2ncnc3[nH]ncc23)ccn1` | 4.284 |
| `CN(C)CCOc1ccc(C#N)cc1` | -5.708 |
| `O=C1NCCCNC1c1ccccc1` (stereo not shown) | -15.77 |
| `COc1cc(CNCCC(C)C)ccc1OCC(N)=O` | -3.838 |
| `CNS(=O)(=O)CC(=O)N(C)CCc1ccccc1F` | 15.12 |
| `CC(C)(C)OC(=O)N1CCN(C(=O)CN)CC1` | -5.882 |
| `Cc1cc(C(=O)NCCCN(C)CC(F)(F)F)no1` | -2.496 |
| `CC[C@@H](O)CN1CCC(OC2CCOC2)CC1` (stereo partly shown) | -6.582 |
| `O=C(CN(CC(=O)NC1CC1)C1CCCC1)NC1CC1` | -0.4391 |
| `CN1CCOC(CNC(=O)c2ccc(N)nc2)C1` (stereo not shown) | 1.349 |
| `CSCc1ccc(C(=O)N(C)Cc2cnccn2)o1` | 98.35 |
| `NCC(=O)N1CCN(c2ccc(Cl)cc2)CC1` | 4.265 |
| `Cc1cc(NC(C)C)ccc1C(N)=O` | -8.292 |
| `CC(Nc1ccc(Cl)cc1)C(=O)NC(N)=O` (stereo not shown) | -15.24 |
| `COC(=O)Cc1cccc(NC(=O)CC2CC2)n1` | 2.915 |
| `COCC(C)NC(=O)Cc1c(C)nn(C)c1C` (stereo not shown) | -2.974 |
| `Cc1cc(NC(=O)CN2CCSCC2)n(C)n1` | -5.821 |
| `Cc1noc(C)c1C(=O)N(C)C1CCS(=O)(=O)C1` (stereo not shown) | -15.63 |
| `N#CCSc1ccccc1C(=O)NC1CCS(=O)(=O)C1` (stereo not shown) | -2.181 |
| `CCN(CC)C(=O)COC(=O)c1c(C)nsc1N` | 1.134 |
| `Cc1cc(NC(=O)NC2CCN(C3CC3)CC2)n(C)n1` | 1.872 |
| `CCN(CC)CCOc1ccc(CN)cc1OC` | 18.33 |
| `OC[C@@H]1CN(CC2CC2)C[C@H]1c1nc(C2CC2)no1` | -11.64 |
| `CC[C@H]1COCCN1C(=O)c1ccn(CC)c(=O)c1` | 7.477 |
| `Cc1cc(CN)c(C)s1` | 0.05301 |
| `CCS(=O)(=O)CC(=O)NC(C)C(C)C` (stereo not shown) | -18.13 |
| `CC(C)CNc1nnc(SCCS(C)(=O)=O)s1` | -14.3 |
| `CC(N)C(=O)Nc1ccccc1` (stereo not shown) | -18.14 |
| `CC1(C)CC(C(=O)NCCNc2cccnc2)CCO1` (stereo not shown) | 4.597 |
| `NC1CCCc2c1cnn2CCO` (stereo not shown) | 3.263 |
| `COCCSC(C(N)=O)c1ccccc1` (stereo not shown) | -2.815 |
| `CC(=O)NCCCSCC(=O)N1CCCCC1C` (stereo not shown) | -4.43 |
| `COc1ccc2c(c1)C(C)(O)C(=O)N2` (stereo not shown) | -7.233 |
| `O=C(c1ccc[nH]1)N1CCCN(Cc2cscn2)CC1` | 2.985 |
| `Cc1c[nH]c(CN(C)Cc2ccncc2Cl)n1` | -5.023 |
| `CC(C)c1nc(Cn2ncn(C)c2=O)cs1` | 25.39 |
| `Cc1n[nH]cc1NC(=O)C1(c2ccc(F)cc2)CC1` | -15.63 |
| `CCc1ncc(CNC)s1` | 3.15 |
| `O=C(N[C@H]1C[C@@H]2OCC[C@H]12)c1n[nH]c2ccccc12` | -8.217 |
| `CN(C)C(=O)NCCNc1ccnc2cc(Br)cnc12` | -26.61 |
| `N#CC1(NC(=O)C(O)Cc2ccccc2Cl)CCC1` (stereo not shown) | -6.44 |
| `Cc1cccc(NCCCNC(=O)C(C)C)n1` | 6.174 |
| `NS(=O)(=O)c1ccc(N2C(=O)C=CC2=O)cc1` | -8.529 |
| `CC(C(=O)NCc1ccnc(N(C)C)c1)S(C)(=O)=O` (stereo not shown) | -2.561 |
| `Cn1nccc1CCNc1ccc(F)cn1` | 0.3742 |
| `COc1ccc(NC(=O)NC(C)(C)C(C)(C)O)cc1` | -11.04 |
| `CSCC(=O)NC1CCc2nccn2C1` (stereo not shown) | -15.03 |
| `CNCc1cnn(-c2ccccc2)c1` | 16.82 |
| `CCCc1nc(CN2CCN(C(C)=O)CC2)cs1` | 2.76 |
| `CSc1ccccc1NC(=O)CCN1CCOCC1` | 4.403 |
| `CCCC(NC)c1ccccn1` (stereo not shown) | -1.92 |
| `O[C@@H]1CCN(Cc2ccc3cccc(Cl)c3n2)C1` | 14.8 |
| `CC(C)CS(=O)(=O)CCNC(=O)c1ccc(=O)n(C)n1` | -0.02592 |
| `COC(=O)[C@H](C)NC(=O)C1(c2ccccc2F)CC1` | -1.862 |
| `CCOCC(C)Nc1ccc(C)c(S(C)(=O)=O)c1` (stereo not shown) | -3.976 |
| `NCC(CO)Cc1ccc(F)c(Br)c1` (stereo not shown) | 38.19 |

Once more, the final 6:

compound,percent effect
CCCC(NC)c1ccccn1 (stereo not shown),-1.92
O[C@@H]1CCN(Cc2ccc3cccc(Cl)c3n2)C1,14.8
CC(C)CS(=O)(=O)CCNC(=O)c1ccc(=O)n(C)n1,-0.02592
COC(=O)[C@H](C)NC(=O)C1(c2ccccc2F)CC1,-1.862
CCOCC(C)Nc1ccc(C)c(S(C)(=O)=O)c1 (stereo not shown),-3.976
NCC(CO)Cc1ccc(F)c(Br)c1 (stereo not shown),38.19

The values are deposited in ChEMBL (CHEMBL3988442, “University of Dundee, Small-Polar-MMV Screening Library” (2021)).